Test results taken from patent US20230000888A1, “NAD-PRECURSORS AND DIETARY RESTRICTION FOR TREATING AGE RELATED MEDICAL CONDITIONS” (Leibniz-Institut für Alternsforschung - …, priority 2019, published 2023).
Where two headings read alike, the source gives them in different places. For at least one compound, name, drawing or mass did not settle the structure.

Experiments:
[1] = system: Drosophila sod1 (superoxide dismutase 1 gene) mutant; conditions: standard feed, cited from earlier work
mice = conditions: cited from earlier work
CMPs = experiment: OCR of CMPs in glucose-restricted medium from old mice fed CRMs with or without NAD-precursor; assay type: in vivo; conditions: old mice (22-24 months), 2 weeks, glucose depletion, FIG. 15

| Compound | extension of the average lifespan ([1]; females) [%] | extension of the average lifespan ([1]; males) [%] | prolongation of the lifespan compared to control animals (mice; mature mice, about 20-months old) | increase of the average lifespan (mice; middle-aged mice, three months of treatment) [%] | synergistic effects of NAD precursor supplementation combined with the CRM on inducing mitochondria activity (OCR) (CMPs) |
| --- | --- | --- | --- | --- | --- |
| CO[C@H]1C[C@@H]2CC[C@@H](C)[C@@](O)(O2)C(=O)C(=O)N2CCCC[C@H]2C(=O)O[C@H]([C@H](C)C[C@@H]2CC[C@@H](O)[C@H](OC)C2)CC(=O)[C@H](C)/C=C(\C)[C@@H](O)[C@@H](OC)C(=O)[C@H](C)C[C@H](C)/C=C/C=C/C=C/1C [rapamycin, Rapamycin] | 26 | 6 | 28-38% | 60 |  |
| COc1cc(/C=C/c2ccc(O)cc2)cc(OC)c1 [pterostilbene, Pterostilbene] |  |  |  |  | no synergistic effects on inducing mitochondria activity |
